# Values joined by “and” are separate entries in the source; they are usually repeats but may differ in a detail not shown here. Equal values may be shown once. About 6,000 (1.7%) of roughly 350,000 compounds were called active. Inconclusive results, whose numbers are uncertain, are shown with a selection of clear calls. Cut-off read from the data, not from the text of the source: active = CPE inhibition above about 20% (passing the limit was not always enough); inconclusive = no clear call, values can overlap the other calls; tested in BHK-21 cells.
# Assay: protection of cells from dengue 2 killing – plate reader, single concentration, primary screen (AID 651640);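 note: 0% = median of neutral control wells and 100% = median of positive control wells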
# Conditions: DENV2-infected cells, cytopathic effect rescue, at 9.99 µM, active compounds read high
row,SMILES,CPE inhibition
1,O=C(CN1CCOCC1)N1CCCCN2[C@H](C1)[C@@H](c1ccc(-c3ccccc3F)cc1)[C@@H]2CO,inconclusive: 29.4%
2,Cc1ccc(C)c(CC(=O)N2CCCC(c3cc(C(=O)Nc4ccccc4Cl)no3)C2)c1 (stereo not given),inconclusive: 59.1%
3,COc1ccc(NS(=O)(=O)c2ccc3c(c2)CCCN3C(C)=O)cc1,inactive: -5.18%
4,COc1ccc(C(=O)/C=C2/c3ccccc3CC(C)(C)N2C)cc1OC,inactive: 4.4%
5,CCCCc1cc(=O)oc2cc(OCC(=O)NCCN3CCOCC3)ccc12,inconclusive: 36.1%
6,CNC(=O)C1=C(C)Nc2nc3ccccc3n2C1c1cccc(OC)c1 (stereo not given),inconclusive: 22.2%
7,C[C@@H](NC(=O)C[C@H]1CC[C@@H]2[C@H](COC[C@@H](O)CN2C(=O)Nc2cccc(F)c2)O1)c1ccccc1,inactive: 13.2%
8,O=C(NC(=S)Nc1cccc(O)c1)c1ccco1,inconclusive: 40.7%
9,CCCCc1nc(SCC(=O)Nc2nnc(CCCC)s2)n[nH]1,inconclusive: 26.6%
10,C[C@@H]1CN([C@H](C)CO)C(=O)c2cc(NC(=O)CCCN(C)C)ccc2O[C@@H]1CN(C)S(=O)(=O)c1ccc(F)cc1,inactive: 16.6%
11,CO[C@@H]1CN(C)C(=O)c2cc(NC(=O)Nc3ccc4c(c3)OCO4)ccc2OC[C@H](C)NC[C@H]1C,inactive: -1.56%
12,Cc1ccc2cc(C)c3nnc(SCC(=O)c4cccs4)n3c2c1C,inactive: 2.26%
13,COC(=O)C[C@H]1c2cc(C(F)(F)F)ccc2S(=O)(=O)N1Cc1ccccc1,inconclusive: 21.7%
14,Cc1cccc(N2CCN(C(=O)c3nn(C)c4c3CS(=O)(=O)c3ccccc3-4)CC2)c1C,active: 35.9%
15,Cc1cc(NS(=O)(=O)c2ccc(N)cc2)no1,inconclusive: 55%
16,N#C[C@H]1[C@@H](c2ccccc2C2=CCCCC2)[C@@H](CO)N1C(=O)NC1CCCCC1,inconclusive: 59%
17,O=C1CC(c2ccccc2)Oc2cc(O)cc(O)c21 (stereo not given),active: 69.9%
18,NC(=O)c1nsc(C(=O)N(c2ccccc2F)C(C(=O)NCc2ccc(F)cc2)c2ccc(O)cc2)c1N (stereo not given),inactive: -0.711%
19,CCN(CC(=O)Nc1ccc2c(c1)OCCO2)Cc1nc2cc(Cl)ccc2c(=O)[nH]1,inconclusive: 35.9%
20,O=C(C[C@H]1CC[C@H]2NC[C@H](O)COC[C@@H]2O1)NCCc1ccccc1,active: 35.7%
21,CCc1csc(N2[C@H](C#N)[C@H](c3ccc(C4=CCCC4)cc3)[C@H]2CO)n1,inconclusive: 22%
22,C#CCOCCOCCOCCNc1nc(N2CCOCC2)nc(N2CCN(C(=O)CCCCCCCCCCNC(=O)[C@H](CO)n3cc(CCCCCN)nn3)CC2)n1,inconclusive: 43.8%
23,C[C@H](CO)N1C[C@H](C)[C@H](CN(C)S(=O)(=O)c2cn(C)cn2)Oc2ccc(N(C)C)cc2C1=O,inactive: 6.45%

# Given with bars between the fields: two of the compounds above.
row | SMILES | CPE inhibition
1 | O=C(CN1CCOCC1)N1CCCCN2[C@H](C1)[C@@H](c1ccc(-c3ccccc3F)cc1)[C@@H]2CO | inconclusive: 29.4%
2 | Cc1ccc(C)c(CC(=O)N2CCCC(c3cc(C(=O)Nc4ccccc4Cl)no3)C2)c1 (stereo not given) | inconclusive: 59.1%

# (continued)

row,SMILES,CPE inhibition
1,O=C(C1=C[C@H](c2csc3ccccc23)C[C@H](OCCCCO)O1)N1CCCCCCC1,inactive: -6.62%
2,CCc1ccc(NC(=O)c2nc(S(=O)(=O)Cc3ccccc3)ncc2Cl)cc1,inactive: 0.857%
3,CCc1nn(CCCC(=O)NCc2ccc(OC(C)C)cc2)c(=O)c2cc3occc3n12,inactive: -0.327%
4,C[C@H](CO)N1C[C@H](C)[C@H](CN(C)Cc2ccc3c(c2)OCO3)Oc2ccc(NC(=O)Nc3cccc4ccccc34)cc2CC1=O,inconclusive: 39.3%
5,C[C@@H]1CN([C@@H](C)CO)C(=O)Cc2cc(NC(=O)Nc3ccc(C(F)(F)F)cc3)ccc2O[C@H]1CN(C)C(=O)Nc1ccc(C(F)(F)F)cc1,active: 53%
6,CC1=C(C(=O)N(C(C)C)C(C)C)CC(CC(=O)NCc2cccc3ccccc23)C(=O)N1Cc1ccccc1 (stereo not given),inconclusive: 28.7%
7,C[C@H]1CN([C@@H](C)CO)C(=O)CCCn2cc(nn2)CO[C@H]1CN(C)S(=O)(=O)c1ccc(C#N)cc1,inactive: 6.25%
8,COc1ccc2c3c(n(C)c2c1)[C@@H](CO)N(C(=O)c1cnccn1)CC31CN(C)C1,inactive: 4.94%
9,CN(C)c1ccc(S(=O)(=O)NCC(=O)OCC(=O)NC(=O)C2CCCCC2)cc1[N+](=O)[O-],inconclusive: 52.3%
10,CCc1nc(SCC(=O)Nc2nnc(C(C)C)s2)n[nH]1,inconclusive: 30.4%
11,C[C@H]1CN([C@@H](C)CO)C(=O)Cc2cc(NC(=O)Nc3ccc4c(c3)OCO4)ccc2O[C@H]1CN(C)Cc1ccc(C(=O)O)cc1,active: 78.3%
12,C=CCN1C(=O)[C@@]2(O[C@@H](CCn3cc([C@H](O)c4ccccc4)nn3)[C@H]([Si](C)(C)c3ccc(OC)cc3)[C@H]2C)c2cc(N3CCOC3=O)ccc21,active: 41.6%
13,O=C(c1ccccn1)N1CC[C@@H]2[C@H](CO)Nc3ccc(-c4ccc(F)cc4)cc3[C@@H]21,inconclusive: 26%
14,O=C(Nc1cc(Cl)cc(Cl)c1)N[C@@H]1CC[C@@H](CCNS(=O)(=O)c2cccc(F)c2)O[C@@H]1CO,inactive: 9.61% and inactive: 4.36%
15,CCC(=O)N1CC2(C1)CN(C(=O)Nc1ccccc1F)[C@H](CO)c1c2c2ccc(OC)cc2n1C,inconclusive: 20.2%
16,CC(=O)N(C)C[C@@H]1[C@H](c2ccc(-c3cccnc3)cc2)[C@H](CO)N1C(=O)C1CC1,inactive: -1.74%
17,CCN(CC)c1ccc(C(=O)N/N=C(\C)c2cccnc2)cc1,inconclusive: 29.2%
18,CN1C(=O)c2cc(NC(=O)c3ccc(Cl)cc3)ccc2OC[C@@H]2O[C@H](CC(=O)NCc3cccc(F)c3)CC[C@H]21,inactive: -24%
19,COc1c(C)cccc1C(=O)NCc1ccc2c(c1)OCO2,inconclusive: 27.6%
20,COc1ccc(C2=NN(C(=O)c3ccccc3)C(c3ccc(OC)c(OC)c3)C2)cc1OC (stereo not given),inconclusive: 23.8%
21,CCN(CC)CCNC(=O)c1ccc(NC(=O)Cc2ccc(OC)c(S(=O)(=O)N3CCOCC3)c2)cc1,active: 40.3%
22,COc1ccc(NC(=O)Nc2ccc3c(c2)C(=O)N([C@@H](C)CO)C[C@@H](C)[C@@H](CN(C)C(=O)Nc2ccccc2)OCCCC[C@H](C)O3)cc1,inactive: 5.23%

# Reference: PubChem BioAssay AID651640 (Broad Institute, 2012)
